Measurements reported in PMC8113555.
These are yes or no findings as the source states them, for the method shown. Binding calls can cover weak binding; strength is not graded here. For part of these data: Where a sequence is shown, tags or fusion partners need not be part of it. For part of these data: Binding seen in cells or lysates may run through a third protein. Values belong to the substance of their own block, whether it stands above or below them.

How the values were obtained:
[1] = target: TEBP-2::GFP (Telomere-Binding Protein-2, T12E12.3) (C. elegans) (UniProt Q22429); assay: co-IP; GFP-trap IP of TEBP-2::GFP from embryo and young adult extracts of strains with one or both endogenous tags, western blot for FLAG; also in pot-1 mutants (Supplementary Fig. 6h)
[2] = target: T1, POT-1 full length, Gal4 fusion (C. elegans) (UniProt P42001); assay: two-hybrid; yeast strain PJ69-4α, Gal4 activation and DNA-binding domain plasmid pairs co-transformed; growth on SC Trp-Leu-His- and SC Trp-Leu-His-Ade- plates
T1 sequence: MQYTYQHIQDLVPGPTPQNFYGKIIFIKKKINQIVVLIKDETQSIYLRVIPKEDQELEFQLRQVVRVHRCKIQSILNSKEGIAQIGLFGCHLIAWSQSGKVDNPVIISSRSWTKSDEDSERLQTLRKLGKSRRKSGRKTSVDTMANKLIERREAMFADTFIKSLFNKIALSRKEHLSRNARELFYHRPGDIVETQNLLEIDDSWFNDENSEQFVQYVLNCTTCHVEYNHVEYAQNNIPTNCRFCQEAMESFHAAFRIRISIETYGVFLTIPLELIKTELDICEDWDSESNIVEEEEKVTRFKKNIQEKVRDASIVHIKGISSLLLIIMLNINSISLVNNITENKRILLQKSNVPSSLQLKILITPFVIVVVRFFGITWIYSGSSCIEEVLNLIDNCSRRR

[3] = target: TEBP-1::3xFLAG (Telomere-Binding Protein-1, R06A4.2) (C. elegans) (UniProt O62329); assay: co-IP; reciprocal IP of TEBP-1::3xFLAG (anti-FLAG M2, Protein G beads) from C. elegans extracts, western blot for GFP

binding [1]: binds
Substance: TEBP-1::3xFLAG (Telomere-Binding Protein-1, R06A4.2) (from UniProt O62329)

binding [2]: binds
Substance: TEBP-2 full length, Gal4 fusion (C. elegans)

binding [3]: binds
Substance: TEBP-2::GFP (Telomere-Binding Protein-2, T12E12.3) (from UniProt Q22429)
